Paper PMC9029106
These are yes or no findings as the source states them, for the method shown. Binding seen in cells or lysates may run through a third protein. Some entries that bind do so weakly or less than the wild type. For part of these data: Sequences can lack the tags named with a protein. Blank lines part the entries; values can stand above or below the molecule they belong to.

Chains of the proteins cited; added tags and fusions are not shown. Lines headed by an entry give the natural chain unless they say otherwise; changes in a name come on top.
UniProt P46527: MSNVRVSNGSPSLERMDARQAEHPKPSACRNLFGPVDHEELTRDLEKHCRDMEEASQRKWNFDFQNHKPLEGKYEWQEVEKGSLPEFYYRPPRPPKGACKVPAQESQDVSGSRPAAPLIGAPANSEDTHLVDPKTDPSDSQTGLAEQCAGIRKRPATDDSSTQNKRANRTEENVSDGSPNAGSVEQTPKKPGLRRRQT

Experiments:
[1] = target: T1, HA-tagged RNF6 ΔRING mutant (aa 1–629) (human) (UniProt Q9Y252); assay: co-IP; HA-tagged WT RNF6 and mutants cotransfected with p27 in HEK293 cells; MG132 (10 µM) for 6 h; blotted for HA and p27; the precipitating antibody is not told
T1 sequence: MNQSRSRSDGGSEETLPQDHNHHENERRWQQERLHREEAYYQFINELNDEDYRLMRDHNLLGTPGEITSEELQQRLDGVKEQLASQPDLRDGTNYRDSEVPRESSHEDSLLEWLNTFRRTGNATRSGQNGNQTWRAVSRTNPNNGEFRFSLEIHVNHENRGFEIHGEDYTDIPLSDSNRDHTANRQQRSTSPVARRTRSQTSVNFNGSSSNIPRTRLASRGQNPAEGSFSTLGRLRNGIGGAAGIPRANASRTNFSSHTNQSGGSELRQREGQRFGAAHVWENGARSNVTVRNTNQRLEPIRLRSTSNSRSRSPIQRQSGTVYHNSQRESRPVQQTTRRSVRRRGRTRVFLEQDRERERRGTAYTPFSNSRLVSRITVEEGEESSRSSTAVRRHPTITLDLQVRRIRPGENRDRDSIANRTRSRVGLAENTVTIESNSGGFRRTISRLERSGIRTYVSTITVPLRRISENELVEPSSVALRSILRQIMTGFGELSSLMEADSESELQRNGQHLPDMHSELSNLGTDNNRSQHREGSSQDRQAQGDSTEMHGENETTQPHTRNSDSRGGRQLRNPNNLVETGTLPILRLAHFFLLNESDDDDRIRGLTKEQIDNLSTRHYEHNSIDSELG

[2] = target: T2, HA-tagged wild-type WT-RNF6 (aa 1-685) (human) (UniProt Q9Y252); assay: as above
T2 sequence: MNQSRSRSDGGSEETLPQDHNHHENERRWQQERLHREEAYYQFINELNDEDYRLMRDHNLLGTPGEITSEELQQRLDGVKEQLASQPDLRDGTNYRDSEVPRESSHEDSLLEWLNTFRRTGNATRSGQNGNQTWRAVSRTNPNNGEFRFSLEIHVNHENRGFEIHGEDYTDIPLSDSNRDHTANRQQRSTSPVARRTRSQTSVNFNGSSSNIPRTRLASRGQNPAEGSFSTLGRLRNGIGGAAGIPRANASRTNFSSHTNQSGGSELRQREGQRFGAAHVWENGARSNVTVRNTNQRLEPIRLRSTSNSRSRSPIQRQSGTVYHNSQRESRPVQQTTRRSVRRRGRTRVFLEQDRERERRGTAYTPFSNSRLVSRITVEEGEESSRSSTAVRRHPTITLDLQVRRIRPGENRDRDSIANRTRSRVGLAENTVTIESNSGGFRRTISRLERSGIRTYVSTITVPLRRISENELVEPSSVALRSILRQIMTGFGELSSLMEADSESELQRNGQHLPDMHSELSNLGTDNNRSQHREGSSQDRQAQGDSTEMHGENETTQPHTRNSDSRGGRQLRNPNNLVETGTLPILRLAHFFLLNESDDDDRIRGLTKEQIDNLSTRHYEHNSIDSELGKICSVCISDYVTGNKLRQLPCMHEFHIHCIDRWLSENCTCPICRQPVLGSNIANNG

[3] = target: T2, HA-tagged wild-type WT-RNF6 (aa 1-685) (human); assay: co-IP; WT RNF6 or Myc-tagged SKP2 cotransfected with WT p27 or p27T187A in HEK293 cells; MG132 (10 µM) for 6 h; lysates immunoprecipitated with anti-RNF6 antibody (so in the source); immunoblotted for HA/Myc and p27
[4] = target: T3, RNF6 (Ring Finger Protein 6) (human (endogenous in LNCaP and CWR-R1)) (UniProt Q9Y252); assay: co-IP; endogenous proteins; LNCaP and CWR-R1 cells treated with MG132 (10 µM) for 6 h, lysed in IP buffer; immunoprecipitated with anti-RNF6 antibody, immunoblotted for p27; preimmune IgG as control; also after control or RNF6 shRNA
T3 sequence: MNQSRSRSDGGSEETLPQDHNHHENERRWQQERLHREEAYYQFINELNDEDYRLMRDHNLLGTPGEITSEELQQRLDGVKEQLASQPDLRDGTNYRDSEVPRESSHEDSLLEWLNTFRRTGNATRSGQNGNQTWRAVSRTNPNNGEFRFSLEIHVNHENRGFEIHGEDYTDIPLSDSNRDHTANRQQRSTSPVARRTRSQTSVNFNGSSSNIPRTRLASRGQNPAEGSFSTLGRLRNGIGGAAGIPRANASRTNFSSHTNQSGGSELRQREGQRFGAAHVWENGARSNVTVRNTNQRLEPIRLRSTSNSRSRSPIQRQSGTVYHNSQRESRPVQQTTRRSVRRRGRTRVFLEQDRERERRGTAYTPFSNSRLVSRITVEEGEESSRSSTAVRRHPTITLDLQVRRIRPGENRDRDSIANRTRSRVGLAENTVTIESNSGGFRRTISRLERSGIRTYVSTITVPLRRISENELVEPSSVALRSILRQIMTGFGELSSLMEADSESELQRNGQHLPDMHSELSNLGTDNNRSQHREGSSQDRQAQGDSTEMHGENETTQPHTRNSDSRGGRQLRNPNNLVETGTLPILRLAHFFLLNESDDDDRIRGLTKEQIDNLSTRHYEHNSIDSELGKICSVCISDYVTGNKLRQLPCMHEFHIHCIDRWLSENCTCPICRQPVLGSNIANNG

GST-p27 = GST-p27 (UniProt P46527); assay: pull-down; LNCaP cells transfected with GST or GST-p27 alone or with RNF6; after 48 h lysates prepared, GST captured with GSH beads, immunoblotted for GST and RNF6

binding [3]: binds
Molecule: p27T187A phosphomutant (from UniProt P46527 1-198)

binding (GST-p27): binds
B1: RNF6 (protein, UniProt Q9Y252 1-685)
chain: MNQSRSRSDGGSEETLPQDHNHHENERRWQQERLHREEAYYQFINELNDEDYRLMRDHNLLGTPGEITSEELQQRLDGVKEQLASQPDLRDGTNYRDSEVPRESSHEDSLLEWLNTFRRTGNATRSGQNGNQTWRAVSRTNPNNGEFRFSLEIHVNHENRGFEIHGEDYTDIPLSDSNRDHTANRQQRSTSPVARRTRSQTSVNFNGSSSNIPRTRLASRGQNPAEGSFSTLGRLRNGIGGAAGIPRANASRTNFSSHTNQSGGSELRQREGQRFGAAHVWENGARSNVTVRNTNQRLEPIRLRSTSNSRSRSPIQRQSGTVYHNSQRESRPVQQTTRRSVRRRGRTRVFLEQDRERERRGTAYTPFSNSRLVSRITVEEGEESSRSSTAVRRHPTITLDLQVRRIRPGENRDRDSIANRTRSRVGLAENTVTIESNSGGFRRTISRLERSGIRTYVSTITVPLRRISENELVEPSSVALRSILRQIMTGFGELSSLMEADSESELQRNGQHLPDMHSELSNLGTDNNRSQHREGSSQDRQAQGDSTEMHGENETTQPHTRNSDSRGGRQLRNPNNLVETGTLPILRLAHFFLLNESDDDDRIRGLTKEQIDNLSTRHYEHNSIDSELGKICSVCISDYVTGNKLRQLPCMHEFHIHCIDRWLSENCTCPICRQPVLGSNIANNG

Continued, molecule first:

Molecule: WT p27 (from UniProt P46527 1-198)
binding [1]: binds | binding [2]: binds | binding [3]: binds

Molecule: p27 (Kip1) (from UniProt P46527 1-198)
binding [4]: binds
